PubChem BioAssay AID1259254 | NCATS | 2017

- Assay: 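Finding genes that stop cells copying their DNA twice in one cycle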 (primary screen)
- System: human HCT116 colorectal cancer cells
- Reagents: single siRNA against human genes
- Time to read-out: 3 days
- Measured: 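Imaged Hoechst DNA stain sorts each cell into a cycle phase by DNA amount; per plate, G2 fraction set to 0% for non-targeting and 100% for GMNN siRNA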
- Scale: G2 robust z-score: higher = more G2 cells, more excess DNA replication
- Active means: 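An siRNA counts as active if its G2 robust z-score lies at least 5 MADs above the screen median; here such calls match roughly 38% of GMNN control or more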
Shown is one part, drawn at random, of about 59,000 reagents tested. Over the whole deposit, about 1,550 (2.6%) were called active. 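G2 share is only a proxy for re-replication; each gene was hit by three separate siRNAs, and active genes were retested.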 The numbers tell different reagents against one gene apart. Not all columns of the deposit are shown. Reagent sequences are not shown. Not stated in the record: the amount of reagent.

Silencing of ZBTB7A (GeneID 51341) #1 resulted in: G2 robust z-score -1.07; inactive.
ZBTB7A (GeneID 51341) #2 showed G2 robust z-score -0.298; inactive.
ZBTB7A (GeneID 51341) #3 gave G2 robust z-score -0.245; inactive.
SOX5 (GeneID 6660) #1 gave G2 robust z-score -0.382; inactive.
SOX5 (GeneID 6660) #2 showed G2 robust z-score -0.506; inactive.
SOX5 (GeneID 6660) #3 gave G2 robust z-score -0.0447; inactive.
For PELI1 (GeneID 57162) #1, the entry reads G2 robust z-score 1.25; inactive.
PELI1 (GeneID 57162) #2 showed G2 robust z-score 1.6; inactive.
Knock-down of PELI1 (GeneID 57162) #3 came out at: G2 robust z-score 0.174; inactive.
Depletion of RAP2C (GeneID 57826) #1 gave: G2 robust z-score -1.06; inactive.
Against RAP2C (GeneID 57826) #2 the deposit lists G2 robust z-score 0.182; inactive.
Against RAP2C (GeneID 57826) #3, the values are G2 robust z-score -0.382; inactive.
With knock-down of SLC25A53 (GeneID 401612) #1, the record shows G2 robust z-score 6.99; active.
For SLC25A53 (GeneID 401612) #2, the entry reads G2 robust z-score 3.61; inactive.
For SLC25A53 (GeneID 401612) #3 the deposit lists G2 robust z-score 0.447; inactive.
Against UBA5 (GeneID 79876) #1 the deposit lists G2 robust z-score -0.326; inactive.
Silencing of UBA5 (GeneID 79876) #2 resulted in: G2 robust z-score 0.673; inactive.
After knock-down of UBA5 (GeneID 79876) #3, the screen gave G2 robust z-score 0.621; inactive.
After knock-down of LZTS2 (GeneID 84445) #1, the screen gave G2 robust z-score -0.307; inactive.
After knock-down of LZTS2 (GeneID 84445) #2, the record shows G2 robust z-score 1.01; inactive.
Silencing of LZTS2 (GeneID 84445) #3 came out at: G2 robust z-score 0.713; inactive.
With knock-down of SYNDIG1 (GeneID 79953) #1 the results were G2 robust z-score 0.928; inactive.
After knock-down of SYNDIG1 (GeneID 79953) #2 the results were G2 robust z-score -0.118; inactive.
Against SYNDIG1 (GeneID 79953) #3, the entry reads G2 robust z-score 0.875; inactive.
